Source: US7307083B2, “Tetrahydro-acridine and dithiolane derivatives” (priority 2005, dated 2007)
At least one compound was matched to its structure with a doubt left.

Legend:
anti-NGF mice (AD11) [1] = assay: Cholinergic deficit of anti-NGF mice: ChAT immunohistochemistry, cholinergic neurones in the basal forebrain; conditions: i.p., 15 days, doses of Table 6
anti-NGF mice (AD11) [2] = assay: Phosphorylated tau in anti-NGF mice (Western blot, AT270); conditions: i.p., 15 days, doses of Table 6

`CCN(CCCCCCNC1=CC(=O)C(NCCCCCCN(CC)Cc2ccccc2OC)=CC1=O)Cc1ccccc1OC` [Memoquin, reference compound] was tested, and the “recovery of the cholinergic deficit (number of cholinergic neurones in the basal forebrain)” value (anti-NGF mice (AD11) [1]) was “did not allow the complete recovery of the cholinergic deficit”.

For `O=C(O)CCCCC1CCSS1` (centres unmarked) [LA, lipoic acid, reference compound], the Tau (anti-NGF mice (AD11) [2]) was “+”.
